Measurements reported in PubChem BioAssay AID1259405 (NCATS, 2018).

- Assay: 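Knock-downs that lift recombinant protein yield in hamster ovary cells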 (primary screen)
- System: Chinese hamster CHO-K1 ovary cells with stable secreted eGFP expression
- Reagent: single siRNA against mouse genes, 0.8 pmol siRNA per well (2 µl of 400 nM stock)
- Duration: 3 days
- Detection: 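Percent of the per-plate non-targeting control median for intracellular GFP per well by laser scanning cytometry and for cell viability by ATP luminescence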
- Direction: GFP, % of control: higher = more GFP per well, higher productivity; viability (ATP), % of control: higher = more viable cells (more ATP)
- Active means: 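Called active when intracellular GFP, relative to negative control, is at or above 120%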
The deposit covers about 50,000 reagents; below is an unselected part. About 4,000 of all reagents (8%) count as active. 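Mouse siRNA library applied to hamster cells; one well for each siRNA.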 A number with no mark means an inactive call. Reagents against one gene are numbered here.

| GFP, % of control | viability (ATP), % of control | target | reagent no. |
| --- | --- | --- | --- |
| 118 | 93 | Prpsap2 | 1 |
| 57.3 | 62.2 | Pde3b | 1 |
| 103 | 52.4 | Pde3b | 2 |
| 72.7 | 119 | Pde3b | 3 |
| 114 | 79.4 | Rrad | 1 |
| 155 (active) | 132 | Rrad | 2 |
| 50.9 | 50.6 | Rrad | 3 |
| 78.1 | 78.4 | Mpp4 | 1 |
| 78 | 68.4 | Rbsn | 1 |
| 76.7 | 79.9 | Rbsn | 2 |
| 97.7 | 85.9 | Rbsn | 3 |
| 62.7 | 52.3 | Ropn1 | 1 |
| 149 (active) | 36.1 | Ropn1 | 2 |
| 55.9 | 73.2 | Ropn1 | 3 |
| 158 (active) | 74.2 | Svs3b | 1 |
| 150 (active) | 88.4 | Svs3b | 2 |
| 123 (active) | 110 | Svs3b | 3 |
| 192 (active) | 69.1 | Skint7 | 1 |
| 101 | 97.5 | Skint7 | 2 |
| 192 (active) | 125 | Skint7 | 3 |

Quoted from the entries so far for reference:
| GFP, % of control | viability (ATP), % of control | target | reagent no. |
| --- | --- | --- | --- |
| 97.7 | 85.9 | Rbsn | 3 |
| 62.7 | 52.3 | Ropn1 | 1 |
| 149 (active) | 36.1 | Ropn1 | 2 |
| 55.9 | 73.2 | Ropn1 | 3 |
| 158 (active) | 74.2 | Svs3b | 1 |
| 150 (active) | 88.4 | Svs3b | 2 |
| 123 (active) | 110 | Svs3b | 3 |

The list goes on.
| GFP, % of control | viability (ATP), % of control | target | reagent no. |
| --- | --- | --- | --- |
| 94.9 | 86.1 | Epha2 | 1 |
| 56.3 | 79.2 | Mmp24 | 1 |
| 42.9 | 44.9 | Mmp24 | 2 |
| 92.1 | 133 | Ephx1 | 1 |
| 77.1 | 83.3 | Ephx1 | 2 |
| 102 | 66 | Ephx1 | 3 |
| 59.6 | 57.6 | Uba2 | 1 |
| 56.6 | 46.6 | Uba2 | 2 |
| 109 | 109 | Uba2 | 3 |
| 70.9 | 78.5 | Ago4 | 1 |
| 89.3 | 76.2 | Ago4 | 2 |
| 110 | 81.8 | Ago4 | 3 |
| 16.5 | 25.9 | Epha3 | 1 |
| 81.6 | 90.8 | Cul1 | 1 |
| 51.4 | 70.6 | Cul1 | 2 |
| 102 | 101 | Cul1 | 3 |
| 55.5 | 54.7 | Mok | 1 |
| 82.4 | 114 | Samd5 | 1 |
| 51.2 | 48.8 | Samd5 | 2 |
| 54.1 | 64 | Samd5 | 3 |
| 80.9 | 88.3 | Akap4 | 1 |
| 138 (active) | 70.5 | Akap4 | 2 |
| 103 | 56.1 | Rps14 | 1 |
| 63.8 | 26.2 | Rps14 | 2 |
| 48.9 | 19.8 | Rps14 | 3 |
| 98.9 | 79.6 | Fxyd4 | 1 |
| 80.2 | 75.1 | Fxyd4 | 2 |
| 99.9 | 88.9 | Fxyd4 | 3 |
| 80.5 | 73.4 | Tspan32 | 1 |
| 85.8 | 77 | Tspan32 | 2 |
| 80.5 | 86.7 | Tspan32 | 3 |
| 56.6 | 55.5 | Prl3b1 | 1 |
| 76.8 | 79 | Prl3b1 | 2 |
| 94.2 | 75.4 | Prl3b1 | 3 |
| 20.8 | 31.6 | Bach2os | 1 |
| 76 | 63.9 | Bach2os | 2 |
| 111 | 141 | Bach2os | 3 |
